Among the data in paper PMC6962311 are binding values, retold here.

This experiment addresses ino2 (An02g04350p), bHLH transcription factor of Aspergillus niger (Aspergillus niger) (UniProt A2QCQ1). Description: two-hybrid; pGBKT7 baits in S. cerevisiae Y2HGold mated with pGADT7 preys in S. cerevisiae Y187; mated strains plated on DDO (SD/-Leu/-Trp), positive colonies inoculated on QDO/X/A (SD/-Ade/-His/-Leu/-Trp with X-a-Gal and Aureobasidin A).

These are yes or no findings as the source states them, for the method shown. Binding calls can cover weak binding; strength is not graded here.

Turning to “Opi1p (An15g02370p) of Aspergillus niger (from UniProt A2R518)”, the binding result is “binds”.
